Assay results from patent publication US12685733B2, “Indole molecules and use thereof in the inhibition of DNA polymerases” (BioVentures, LLC, priority 2019, dated 2026).
At least one structure is not confirmed: it was looked up by name or label, or the drawing left a doubt.

Key:
[1] = tested on: hpol κ-deficient HAP-1 cells; assay: Alkaline comet assay; format: cell-based, human; settings: single agent, 1 h: 0.5 μM IAG-10 or 100 μM TMZ
Procedure: (§1) To evaluate DNA damage upon treatment with TMZ and the compound IAG-10, the alkaline comet assay was performed using protocol as described by the manufacturer (Trevigen, Gaithersburg, MD). Briefly, 100 000 HAP-1 cells per well for both the hpol κ-proficient and hpol κ-deficient cell types were plated in a 12-well dish. Both types of cells were treated with 0.5 μM of IAG-10 alone or in combination with TMZ (100 μM) for 1 h. Cells treated with DMSO served as the control. Following treatment, cells were harvested, washed in ice-cold Ix PBS, and counted. The cells were then suspended in low-melting agarose to a final dilution of 200-300 cells per well on the comet slide. The comet slides with wells coated with cell/agarose mixture were incubated at 4° C. in the dark to allow the agarose to solidify before immersing the slides in proprietary lysis solution for 1 h. […] The comets were visualized using an EVOS FL Auto microscope (Life Technologies, Carlsbad, CA) set at 10× magnification and were scored using CometScore software. All experiments were repeated in 3 biological replicates with at least 60 comets scored for each condition. Results were plotted using Graphpad Prism, as the percent of DNA in the tail of each comet, and statistical significance between treatment conditions was calculated using one-way ANOVA with the Bonferroni posthoc correction.

[2] = tested on: hpol κ-proficient HAP-1 cells; assay: Alkaline comet assay; format: cell-based, human; settings: single agent, 1 h: 0.5 μM IAG-10 or 100 μM TMZ
Procedure: as §1

For `Cn1nnc2c(C(N)=O)ncn2c1=O` [TMZ, temozolomide, reference compound], the “DNA damage (percent DNA in the tail) compared to control” value [1] was “significantly greater amount of DNA damage over control” and the “DNA damage (percent DNA in the tail) compared to control” value [2] was “approximately sevenfold”.
